Data on 1 molecule can be found in publication PMC7214468.

By UniProt entry, the sequences of proteins in these tests, tags left out.
UniProt O35718: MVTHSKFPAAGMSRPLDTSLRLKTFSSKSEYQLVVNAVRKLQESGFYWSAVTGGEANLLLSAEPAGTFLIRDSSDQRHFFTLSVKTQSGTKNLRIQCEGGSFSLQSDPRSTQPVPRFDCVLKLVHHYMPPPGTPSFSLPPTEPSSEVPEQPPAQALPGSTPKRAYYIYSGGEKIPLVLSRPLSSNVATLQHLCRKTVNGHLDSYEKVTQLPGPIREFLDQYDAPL

The target of this assay is HA-SOCS3 (suppressor of cytokine signaling 3) (UniProt O35718). Briefly: co-IP; HEK293T cells co-transfected with the indicated plasmids; lysates precleared with protein G-agarose, incubated with anti-HA overnight at 4 °C, beads washed three times with lysis buffer; western blotting. In general terms: Immunoblotting shows a protein as a band on a membrane.

Results are given in words; binding and its absence hold for the method and conditions named. In cells and extracts the contact can be indirect. Some entries that bind do so weakly or less than the wild type. Sequences can lack the tags named with a protein.

B1: Flag-CUEDC2 (CUE domain-containing 2) (protein, UniProt Q9CXX9 1-284)
chain: MELERIVGSALLTFVQAHLPEADLSGLDEVIFSYVLGVLEDLGPSGPSEENFDMEAFTEMMEAYVPGFAHIPRGIIGDMMQKLSVQLSDARNKENLHPQSSCVQGQVPIFPETPRQAEKLEEESRPPAAPGNTLDEAAAAEELPGVDVLLEVFPTCSMEQAQWVLAKARGDLEEAVHMLVEGKEEGPPGWDGPSQDLPRRLRGPQKDDLKSFILQKYMMVDRAEDQKTHRPMAPKEAPKKLIRYIDNQVVSTKGERFKDVRNPEAEEMKATYINLKPARKYRFH
For the molecule B1, the binding result is “binds”.
